Experimental data taken from US9205113B2, “Synthetic triterpenoids and methods for modulating stem/progenitor cell gene expression” (Trustees of Dartmouth College, priority 2012, dated 2015).
At least one compound was matched to its structure with a doubt left.

Test system: Smad7
Experiment: quantitative RT-PCR of calvarial organ cultures: Smad7
Type: cell-based
Conditions: 200 nM, 7 days of culture, newborn mouse calvaria

In the case of `CC1(C)CC[C@]2(C(=O)n3ccnc3)CC[C@]3(C)[C@H](C(=O)C=C4[C@@]5(C)C=C(C#N)C(=O)C(C)(C)[C@@H]5CC[C@]43C)[C@@H]2C1` [CDDO-Im, 1-(2-cyano-3,12-dioxooleana-1,9(11)-dien-28-oyl) imidazole], the “Smad7 expression (quantitative RT-PCR)” value was 1.320.14.
